Where “and” joins values, the source holds several entries; their conditions need not be identical. Equal values may be shown once. The name of at least one read-out is uncertain.
Tested on: amyloid precursor protein (APP) proteolysis
Assay: Repressor Release Assay (RRA)
Assay type: cell-based
Settings: all compounds tested at 20 μg/mL
Protocol: The beta amyloid inhibitory activity of many of the compounds of the present invention has been determined using the Repressor Release Assay (RRA). See, Table 5 below. A compound is considered active in RRA if it leads to at least a 1.5 fold increase in luciferase activity at 20 μg/mL and is non-toxic.
The compounds generated as described in the Examples above are tested in the RRA in accordance with published techniques [Shuey, D. J., Sheiffele, P., Jones, D., Cockett, M. I., and Quinet, E. M. (1999), “Repressor release: a useful tool for monitoring amyloid precursor protein (APP) proteolysis in mammalian cells”, Society for Neuroscience Abstracts, Vol. 25, 29th Annual Meeting of Society for Neuroscience, Miami Beach, Fla., Oct. 23-28, 1999]. Briefly, this assay is performed as follows.
CHO-K1 cells are cultured in whole DMEM media (DMEM—High Glucose with 10% fetal bovine serum, 1% Non-essential Amino Acids, and 1% Penicillin-Streptomycin) at 37° C. with 5% CO2. Two million cells are plated into 10-cm dishes 24 hrs prior to transfection.
Transient transfections are completed as recommended by Gibco BRL using their Lipofectamine Plus® system. First, 6 μg of pRSVO-luc and 6 μg of APP-lacI construct DNA are added to 460 μL Opti-Mem transfection media and incubated with the 30 μL Plus® reagent for 15 minutes. Then, a lipid mixture of 40 μL Lipofectamine Plus® reagent and 460 μL Opti-Mem transfection media is incubated with the DNA-Plus reagent mixture for 15 minutes. During the DNA-lipid incubation, the CHO-K1 cells are washed once and covered in 5.0 mL DMEM media without Penicillin-Streptomycin. The DNA-lipid preparation is then layered onto these cells and incubated at 37° C. overnight.
One and one half million transfected cells per well (100 μL total volume) are plated into sterile, opaque Packard 96-well Cultur-Plates™ in clear DMEM whole media (DMEM—without phenol red) and incubated at 37° C. with 5% CO2 for 3-5 hours.
Compounds are diluted using two different protocols; one protocol is used for compounds supplied neat (weighed powder in vial) and the other protocol is used for compounds supplied in solution (20 mM in DMSO in 96-well plates). […]
Luciferase assays (the LucLite® reagent, Packard) are performed and are read on a Packard TopCount® instrument. […] Luciferase readings are then taken on the TopCount® instrument. Measurements are expressed as relative light units (RLU) and are calculated and analyzed in the MS Excel® program as follows.
A compound is considered active in RRA if it leads to at least a 1.5 fold increase in luciferase activity at 20 μg/mL and is non-toxic, as determined by loss of signal (≦0.75 fold increase). Fold increase is the amount of luciferase activity (measured in relative light units) over diluent control. […]

| Structure (SMILES) | RRA data: fold increase of APPI (luciferase activity over diluent control) |
| --- | --- |
| C[C@H](CC(F)(F)F)[C@@H](CO)NS(=O)(=O)c1ccc(Cl)s1 [Example 1, 5-Chloro-N-[(1S,2R)-4,4,4-trifluoro-1-(hydroxymethyl)-2-methylbutyl]thiophene-2-sulfonamide] | 3.7 fold increase |
| CC[C@H](CC(F)(F)F)[C@@H](CO)NS(=O)(=O)c1ccc(Cl)s1 [Example 2, 5-Chloro-N-[(1S,2R)-2-ethyl-4,4,4-trifluoro-1-(hydroxymethyl)butyl]thiophene-2-sulfonamide] | 3.7 fold increase and 4.3 fold increase |
| O=S(=O)(NC(CO)C1CCC(F)(F)CC1)c1ccc(Cl)s1 (stereo not shown) [Example 14, 5-Chloro-N-[1-(4,4-difluorocyclohexyl)-2-hydroxyethyl]thiophene-2-sulfonamide] | 5.8 fold increase |
| O=S(=O)(NC(CO)CC(F)(F)F)c1ccc(Cl)s1 (stereo not shown) [Example 40, 5-chloro-(3,3,3-trifluoro-1-hydroxymethyl-propyl)-thiophene-2-sulfonamide] | 4.2 fold increase |

From US7858658B2, “Fluoro- and trifluoroalkyl-containing heterocyclic sulfonamide inhibitors of beta amyloid production and derivatives thereof” (Wyeth LLC, priority 2003, dated 2010)
